From patent US20140343124A1 (ROYAL INSTITUTION FOR THE ADVANCEMENT OF LEARNING MCGILL …, published 2014)
Numbering of substitutions follows the chain as printed. No constants are given. Whether binding was seen depends on the method and setting. For some of these results: In cells and extracts the contact can be indirect. Some binding calls cover weakened binding; strength is not graded here. For some of these results: Tags and fused reporters may be left off the sequences shown.

B1: downregulated in renal cell carcinoma (DRR), human, full-length (protein, UniProt O95990 1-144, looked up)
chain: MYSEIQRERADIGGLMARPEYREWNPELIKPKKLLNPVKASRSHQELHRELLMNHRRGLGVDSKPELQRVLEHRRRNQLIKKKKEELEAKRLQCPFEQELLRRQQRLNQLEKPPEKEEDHAPEFIKVRENLRRIATLTSEEREL
B2: FLAG-DRR (protein, UniProt O95990 1-144, looked up, not shown: small tags and cut ends)
chain: B1 chain
B3: FLAG-DRR^ΔPEPE (protein, UniProt O95990 1-144, looked up, not shown: small tags and cut ends)
chain: B1 chain with P65A, E66A, P114A, E115A

Columns and labels:
[1] = target: light chain (LC2) subunit of MAP1A (human) (UniProt P78559); assay: yeast two-hybrid screen, full-length DRR as bait, human brain cDNA library
[2] = target: T1, MYC-LC2 (UniProt P78559 2567-2803, limits assumed); assay: co-localisation and co-immunoprecipitation of heterologously expressed tagged proteins
T1 construct: domain: light chain (LC2) subunit; also called LC2 (heterologously expressed, MYC-tagged); not shown: MYC tag
T1 sequence (looked up): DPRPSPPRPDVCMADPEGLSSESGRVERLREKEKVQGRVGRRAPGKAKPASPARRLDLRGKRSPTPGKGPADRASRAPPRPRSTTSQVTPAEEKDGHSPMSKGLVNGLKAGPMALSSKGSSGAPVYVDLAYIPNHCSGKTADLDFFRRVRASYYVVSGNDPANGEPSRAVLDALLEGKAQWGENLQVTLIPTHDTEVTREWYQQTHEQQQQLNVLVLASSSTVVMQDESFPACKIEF

[3] = target: T1, MYC-LC2; assay: co-immunoprecipitation of heterologously expressed tagged proteins

Binder	binding [1]	binding [2]	binding [3]
B1	binds		
B2		binds	binds
B3			binds
